No constants are given. Whether binding was seen depends on the method and setting.
Biological target: T1, human KIF1A motor domain and neck linker construct (human) (UniProt Q12756)
T1 sequence: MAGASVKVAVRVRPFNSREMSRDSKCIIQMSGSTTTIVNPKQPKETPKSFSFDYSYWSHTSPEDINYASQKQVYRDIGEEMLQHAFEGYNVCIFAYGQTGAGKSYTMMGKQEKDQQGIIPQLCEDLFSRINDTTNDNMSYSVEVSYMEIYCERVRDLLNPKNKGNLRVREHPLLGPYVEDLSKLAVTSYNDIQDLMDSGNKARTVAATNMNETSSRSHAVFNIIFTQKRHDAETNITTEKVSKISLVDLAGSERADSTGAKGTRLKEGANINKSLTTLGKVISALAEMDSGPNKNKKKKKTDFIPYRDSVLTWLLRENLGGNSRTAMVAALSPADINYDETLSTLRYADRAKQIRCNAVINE
Assay: condition: only on holey gold grids without GO (unsupported ice); cryo-EM 2D classification; purified complex diluted to 0.15 mg/ml in KBP dilution buffer plus 0.2 mM ADP, on holey gold grids without GO; small preliminary data set; both purified

- binding: no binding
B1: kinesin-binding protein (protein, UniProt Q96EK5 1-621)
chain: MANVPWAEVCEKFQAALALSRVELHKNPEKEPYKSKYSARALLEEVKALLGPAPEDEDERPEAEDGPGAGDHALGLPAEVVEPEGPVAQRAVRLAVIEFHLGVNHIDTEELSAGEEHLVKCLRLLRRYRLSHDCISLCIQAQNNLGILWSEREEIETAQAYLESSEALYNQYMKEVGSPPLDPTERFLPEEEKLTEQERSKRFEKVYTHNLYYLAQVYQHLEMFEKAAHYCHSTLKRQLEHNAYHPIEWAINAATLSQFYINKLCFMEARHCLSAANVIFGQTGKISATEDTPEAEGEVPELYHQRKGEIARCWIKYCLTLMQNAQLSMQDNIGELDLDKQSELRALRKKELDEEESIRKKAVQFGTGELCDAISAVEEKVSYLRPLDFEEARELFLLGQHYVFEAKEFFQIDGYVTDHIEVVQDHSALFKVLAFFETDMERRCKMHKRRIAMLEPLTVDLNPQYYLLVNRQIQFEIAHAYYDMMDLKVAIADRLRDPDSHIVKKINNLNKSALKYYQLFLDSLRDPNKVFPEHIGEDVLRPAMLAKFRVARLYGKIITADPKKELENLATSLEHYKFIVDYCEKHPEAAQEIEVELELSKEMVSLLPTKMERFRTKMALT

Reference: paper PMC8025885, “Cryo-EM of kinesin-binding protein: challenges and opportunities from protein-surface interactions” (Acta Crystallographica. Section D, Structural Biology, 2021)
